Measurements: US20060110456A1, “Method for biocidal and/or biostatic treatment and compositions therefor” (NATIONAL UNIVERSITY OF SINGAPORE, priority 2004, published 2006)
Counter-ions that a name gives are not always drawn. Some entries repeat one wording, which the source may state once for all of them.

Tests used:
[1] = Effect of pharmaceuticals on substratum wettability (Standard Harmonic Mean, SHM); conditions: 25 and 50 μg ml^−1 in seawater, 2 h
[2] = tested on: Balanus amphitrite cyprids; conditions: LC50/EC50
Protocol: Pharmaceuticals from the respective manufacturers were treated in the following way. A pill containing a known amount of active ingredient (as stated in product information) was ground in a mortar and pestle and a suspension of 2 mg ml^−1 generated in de-ionized water. This stock solution is stored at −20° C. in 4 ml amber screw cap vials. For the bioassays, 250 ul of stock solution is added to 10 ml of 1 um filtered seawater. This suspension was then sonicated for 10 minutes. Serial dilutions of this 50 μg ml^−1 seawater solution, or suspension, with seawater was done to generate the required range of concentrations.
This method is now standard practice for many antifouling screening of novel compounds.
Barnacle larvae from field-collected adults were reared on an algal mixture of 1:2:2 v/v of Rhodomonas salina, Tetraselmis suecica and Chaetoceros muelleri at 25° C., at approximately 5×10^5 cells per ml density. On this regime, larvae metamorphose to cyprids in 5 days.
Test solutions were made up to twice the required final concentration. 1 ml of test solution was added into each well, and cyprids were transferred into each well in 1 ml of seawater. Assays were done in triplicate. After 24 hours, larvae that had attached and metamorphosed were enumerated and the result expressed as percentage settlement. Larvae not attached were scored as not settled. […]

Row | SMILES | Wettability (SHM) of untreated polystyrene [1] | Therapeutic ratio [2]
1 | CN1CCN(CCCN2c3ccccc3Sc3ccc(C(F)(F)F)cc32)CC1 [TFZ, Trifluoperazine hydrochloride] | little effect | 
2 | Cc1cc2c(s1)Nc1ccccc1N=C2N1CCN(C)CC1 [ZPX, olanzapine] | significantly increased the wettability | 218.97
3 | CCCCCCCCCC(=O)OC1(c2ccc(Cl)cc2)CCN(CCCC(=O)c2ccc(F)cc2)CC1 [HDL, haloperidol decanoate] | little effect | 2.12
4 | CN1CCN(C(c2ccccc2)c2ccccc2)CC1 [CYZ, Cyclizine hydrochloride] | little effect | 
5 | CN[C@H]1CC[C@@H](c2ccc(Cl)c(Cl)c2)c2ccccc21.Cl [ZLT, sertraline hydrochloride] | significantly increased the wettability | 
6 | CNCCC(Oc1ccc(C(F)(F)F)cc1)c1ccccc1 (stereo not drawn) [PZC, fluoxetine hydrochloride] | slight increase in wettability | 
7 | Cc1nccn1CC1CCc2c(c3ccccc3n2C)C1=O (stereo not drawn) [ZFN, ondansetron hydrochloride] | significantly increased the wettability | 
